Experimental findings from PubChem BioAssay AID248 (DTP/NCI, 2004) are described below.

The list is a part of this screen's results and no random one: it gathers tests that were run many times, whatever their T/C, doses with no T/C, and many T/C values between a quarter and a half above the control. Other doses and runs of a compound stand elsewhere. T/C gives the treated animals as a percentage of the vehicle group. Some doses have a count of surviving animals in place of a T/C: the source holds a T/C of zero for them, seemingly a mark for toxic or unscored doses. Some survivor counts are full or nearly so, which does not show that the dose was tolerated: the source hardly ever lists a survival T/C far under the control, and the zero likely stands for such cases as well. Survivors were counted at the toxicity check, usually on the fifth day, unless a day is given; later deaths do not show. Schedules are NCI's codes, read here as Q, the interval in days (D) or hours (H), X, the number of doses. Some entries hold several experiments; their values stand side by side, smallest first. Some schedule codes hold Z or #, which are not explained here. Where survival is the endpoint, the PubChem record calls one and a half times the control and up active, and a quarter to a half above the control has no call in these data; cut-offs in other NCI protocols can differ. Some T/C values are followed by the survivors on the day toxicity was checked, most often the fifth; where none is given, no animal had died by that day.

The test system of this experiment is L1210 leukemia ip in BDF1 mice, survival T/C. Kind of experiment: NCI In Vivo Anticancer Drug Screen. Data for tumor model L1210 Leukemia (intraperitoneal) in B6D2F1 (BDF1) mice. The note with it: T/C endpoint: mean survival time, higher T/C = longer survival.
Where [1] appears, read: dose: 200.0 mg/kg/injection, schedule: Q01DX001 (ip), vehicle: saline.
Setting [2] is: dose: 400.0 mg/kg/injection, schedule: Q01DX001 (ip), vehicle: saline.

For `N#CSCCSC#N`, the survivor count reads like this: (dose: 20.0 mg/kg/injection, schedule: Q04DX003 (ip), vehicle: Klucel (hydroxypropylcellulose) (HPC)) 0 of 6; (dose: 40.0 mg/kg/injection, schedule: Q04DX003 (ip), vehicle: Klucel (hydroxypropylcellulose) (HPC)) 0 of 6; (dose: 100.0 mg/kg/injection, schedule: Q04DX002 (ip), vehicle: Klucel (hydroxypropylcellulose) (HPC)) 0 of 3; (dose: 200.0 mg/kg/injection, schedule: Q04DX002 (ip), vehicle: Klucel (hydroxypropylcellulose) (HPC)) 0 of 3; (dose: 400.0 mg/kg/injection, schedule: Q04DX002 (ip), vehicle: Klucel (hydroxypropylcellulose) (HPC)) 0 of 3.

For the compound `ClC1(Cl)CC1c1ccccc1` (centres undefined), the survivor count (dose: 400.0 mg/kg/injection, schedule: Q01DX009 (ip), vehicle: saline with Tween-80) is on record as 2 of 6.

For `Clc1ncnc2nc[nH]c12`, the T/C runs as follows: (dose: 37.5 mg/kg/injection, schedule: Q03HX008 (ip), vehicle: other) 128 % of control; (dose: 37.5 mg/kg/injection, schedule: Q03HX016 (ip), vehicle: other) 137 % of control; (dose: 50.0 mg/kg/injection, schedule: Q01DX009 (oral), vehicle: other) 145 % of control; (dose: 50.0 mg/kg/injection, schedule: Q01DX015 (ip), vehicle: other) 128 % of control; (dose: 50.0 mg/kg/injection, schedule: Q03HX016 (ip), vehicle: other) 136 % of control; (dose: 50.0 mg/kg/injection, schedule: Q03HX024 (ip), vehicle: other) 147 % of control. Moreover, the T/C is, setting by setting: (dose: 75.0 mg/kg/injection, schedule: Q03HX008 (ip), vehicle: other) 140 % of control; (dose: 96.0 mg/kg/injection, schedule: Q01DX015 (ip), vehicle: gum acacia) 140 and 142 % of control; (dose: 100.0 mg/kg/injection, schedule: Q01DX009 (ip), vehicle: other) 128 % of control; (dose: 100.0 mg/kg/injection, schedule: Q01DX009 (oral), vehicle: other) 127 and 141 % of control; (dose: 100.0 mg/kg/injection, schedule: Q01DX009 (sc), vehicle: other) 149 % of control; (dose: 100.0 mg/kg/injection, schedule: Q01DX015 (ip), vehicle: other) 143 % of control. Further, the T/C (dose: 146.0 mg/kg/injection, schedule: Q01DX015 (ip), vehicle: gum acacia) is 129 % of control; the T/C (dose: 158.0 mg/kg/injection, schedule: Q01DX015 (ip), vehicle: gum acacia, evaluated on day 5) is 138 % of control; the T/C (dose: 158.0 mg/kg/injection, schedule: Q01DX015 (ip), vehicle: gum acacia, evaluated on day 45) was 138 % of control; the T/C (dose: 200.0 mg/kg/injection, schedule: Q01DX005 (ip), vehicle: other) was 134 % of control [9 of 10 alive]; the T/C (dose: 200.0 mg/kg/injection, schedule: Q01DX006 (iv), vehicle: other) was 136 % of control; the T/C (dose: 200.0 mg/kg/injection, schedule: Q01DX009 (ip), vehicle: other) was 130 and 142 % of control. The T/C was 143 % of control (dose: 200.0 mg/kg/injection, schedule: Q01DX009 (sc), vehicle: other); 146 % of control (dose: 200.0 mg/kg/injection, schedule: Q01DX015 (ip), vehicle: other); 147 % of control (dose: 200.0 mg/kg/injection, schedule: Q01DX Z (ip), vehicle: carboxymethylcellulose (CMC)); 149 % of control (dose: 218.0 mg/kg/injection, schedule: Q01DX015 (ip), vehicle: gum acacia); 128 % of control (dose: 241.0 mg/kg/injection, schedule: Q01DX015 (ip), vehicle: gum acacia, evaluated on day 5); 128 % of control (dose: 241.0 mg/kg/injection, schedule: Q01DX015 (ip), vehicle: gum acacia, evaluated on day 45). Besides, the T/C is 147 % of control (dose: 327.0 mg/kg/injection, schedule: Q01DX015 (ip), vehicle: gum acacia); 129 % of control (dose: 400.0 mg/kg/injection, schedule: Q01DX001 (oral), vehicle: other); 147 % of control [8 of 10 alive] (dose: 400.0 mg/kg/injection, schedule: Q01DX005 (ip), vehicle: other); 127 [8 of 10 alive] and 129 % of control [9 of 10 alive] (dose: 400.0 mg/kg/injection, schedule: Q01DX009 (ip), vehicle: other); 126 % of control [7 of 10 alive] (dose: 400.0 mg/kg/injection, schedule: Q01DX009 (sc), vehicle: other); 142 % of control [8 of 10 alive] (dose: 800.0 mg/kg/injection, schedule: Q01DX001 (oral), vehicle: other). Moreover, the survivor count is 0 of 10 (dose: 400.0 mg/kg/injection, schedule: Q01DX001 (iv), vehicle: other); 6 of 10 (dose: 400.0 mg/kg/injection, schedule: Q01DX009 (oral), vehicle: other); 0 of 6 (dose: 400.0 mg/kg/injection, schedule: Q01DX Z (ip), vehicle: carboxymethylcellulose (CMC)); 10 of 10 (dose: 490.0 mg/kg/injection, schedule: Q01DX015 (ip), vehicle: gum acacia); 0 of 10 and 10 of 10 (dose: 540.0 mg/kg/injection, schedule: Q01DX015 (ip), vehicle: gum acacia); 6 of 10 (dose: 600.0 mg/kg/injection, schedule: Q01DX001 (sc), vehicle: other). Further, the survivor count is 0 of 10 (dose: 600.0 mg/kg/injection, schedule: Q04DX003 (ip), vehicle: other); 1 of 10 (dose: 600.0 mg/kg/injection, schedule: Q08DX002 (ip), vehicle: other); 0 of 10 and 10 of 10 (dose: 910.0 mg/kg/injection, schedule: Q01DX015 (ip), vehicle: gum acacia).

Turning to `Nc1nc2c(ncn2C2OC(CO)C(O)C2O)c(=O)[nH]1` (centres undefined), the survivor count was 1 of 6 under setting [1]; 0 of 6 and 2 of 4 under setting [2].

`CN=C(NCCc1ccccc1)c1ccc(NC(=O)c2ccc(C(=O)Nc3ccc(C(=NC)NCCc4ccccc4)cc3)cc2)cc1`: the survivor count (dose: 15.0 mg/kg/injection, schedule: Q01DX Z (ip), vehicle: saline) is recorded as 1 of 6; the survivor count (dose: 30.0 mg/kg/injection, schedule: Q01DX Z (ip), vehicle: saline) was 0 of 6; the survivor count (dose: 60.0 mg/kg/injection, schedule: Q01DX Z (ip), vehicle: saline) is given as 0 of 6; the survivor count (dose: 120.0 mg/kg/injection, schedule: Q01DX Z (ip), vehicle: saline) is given as 0 of 6.

With `COc1cc(Br)c(CC2c3cc(OC)c(OC)cc3CC[N+]2(C)C)cc1OC` (centres undefined), the survivor count (dose: 400.0 mg/kg/injection, schedule: Q01DX009 (ip), vehicle: water) was 2 of 6.

Take `O=C(CCl)OCCCl`: the survivor count was 0 of 3 (dose: 200.0 mg/kg/injection, schedule: Q04DX002 (ip), vehicle: saline with Tween-80) and 0 of 3 (dose: 400.0 mg/kg/injection, schedule: Q04DX002 (ip), vehicle: saline with Tween-80).

For `CC(C)(N)CO[C@H]1C[C@H]2CC[C@@]1(C)C2(C)C`, the survivor count is, setting by setting: (dose: 100.0 mg/kg/injection, schedule: Q01DX001 (ip), vehicle: saline) 1 of 4; under setting [1], 0 of 4; under setting [2], 0 of 4.

Regarding `CN(C)c1ccc2c(c1)Cc1cc(N=C3C=CC(=O)O3)ccc1-2`, the survivor count (dose: 150.0 mg/kg/injection, schedule: Q01DX009 (ip), vehicle: acetone) is 2 of 6; the survivor count (dose: 150.0 mg/kg/injection, schedule: Q04DX003 (ip), vehicle: saline) was 5 of 6; the survivor count under setting [1] is reported as 5 of 6; the survivor count (dose: 225.0 mg/kg/injection, schedule: Q01DX009 (ip), vehicle: acetone) is 2 of 6; the survivor count (dose: 225.0 mg/kg/injection, schedule: Q04DX003 (ip), vehicle: saline) is on record as 3 of 6; the survivor count (dose: 335.0 mg/kg/injection, schedule: Q04DX003 (ip), vehicle: saline) was 2 of 6. Moreover, under setting [2], the survivor count is reported as 3 of 6.
